Over roughly 33,000 sequences, “E-score (-0.5 to 0.5)” has its median near -0.0014; the highest 2% begin near 0.25. The list shows a part of the results.
The sequences below were run against T1, Cad1 (UniProt P24813) (assay: PBM E-score (8-mer binding enrichment) (E-score (-0.5 to 0.5)); higher = stronger / more preferred TF binding). Settings: protein concentration: 100 nM; construct: GST-full length.
T1 sequence: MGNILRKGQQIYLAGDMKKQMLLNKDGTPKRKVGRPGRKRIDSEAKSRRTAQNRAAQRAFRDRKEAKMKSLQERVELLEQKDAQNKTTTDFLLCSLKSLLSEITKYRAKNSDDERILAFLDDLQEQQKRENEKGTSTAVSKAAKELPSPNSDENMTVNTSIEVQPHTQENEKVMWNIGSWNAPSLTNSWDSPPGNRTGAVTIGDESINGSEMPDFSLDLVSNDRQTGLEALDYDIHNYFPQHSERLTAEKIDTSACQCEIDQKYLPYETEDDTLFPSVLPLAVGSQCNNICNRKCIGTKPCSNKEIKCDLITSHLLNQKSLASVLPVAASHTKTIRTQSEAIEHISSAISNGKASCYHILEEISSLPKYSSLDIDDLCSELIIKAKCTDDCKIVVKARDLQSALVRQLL
How it was run: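 PURExpress in vitro transcription/translation supplied GST-tagged yeast transcription factors, either full-length or DNA-binding domain. Applied at about 100-200 nM to universal all-10-mer Agilent arrays double-stranded by primer extension, the bound protein was detected with fluorescent anti-GST. E-scores, modified Wilcoxon-Mann-Whitney statistics, were given by the Universal PBM Analysis Suite to ungapped eight-base words pooled with their reverse complements after masliner normalisation.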

| Sequence | PBM E-score |
| --- | --- |
| CGGCGATA | 0.0896 |
| CAACACTG | 0.0553 |
| CGCTACCC | -0.123 |
| CGATAACA | 0.0644 |
| ATGATGCA | 0.222 |
| ATTGCATA | 0.147 |
| ACTGATAT | 0.0751 |
| AGCTAACC | -0.157 |
| ACACAAAT | 0.196 |
| AAGCATGG | -0.157 |
| CCGCAGAG | -0.283 |
| AACACGAG | 0.155 |
| ATATGCAC | 0.0506 |
| AGGTGGTC | -0.192 |
| GTTACCCA | -0.188 |
| GATCGGAC | 0.0634 |
| AAGATTAC | 0.127 |
| ACCTGAGG | -0.165 |
| GCGATAGA | 0.0948 |
| AAGTATCA | 0.11 |
| ATCGTTGG | 0.0504 |
| CAAACCAA | 0.185 |
| ATATAGCA | -0.0269 |
| ACACGCGG | 0.0311 |
| GCTACACC | -0.0366 |

| Sequence | PBM E-score |
| --- | --- |
| GCCTGGAA | -0.0634 |
| ACATGTAG | 0.23 |
| GGTTACGA | -0.112 |
| ATGGGGTG | -0.206 |
| CACTTTAC | -0.00139 |
| ATTAAGGC | 0.111 |
| CGTCTAAC | -0.0296 |
| CTAATCAA | 0.238 |
| AGGACGCC | 0.0115 |
| CAGCGAAA | -0.0962 |
| CCCTTTCA | -0.213 |
| GTGGCCTA | -0.0869 |
| ATTACAAG | 0.0206 |
| CACGGGGA | -0.195 |
| GCTAATAC | 0.152 |
| ACATTATA | 0.0217 |
| CTCTTCCA | -0.0682 |
| CCGTATCA | 0.0249 |
| TTGATAAA | 0.188 |
| ATAACGGG | -0.0177 |
| ATGAATCA | 0.0957 |
| GACAAGTC | 0.00519 |
| CATACACG | 0.0422 |
| CTGCAGGA | 0.143 |
| TCCGAGAA | 0.129 |

| Sequence | PBM E-score |
| --- | --- |
| GAATGACA | 0.0489 |
| AATAGCGT | 0.108 |
| CAGGTAAG | -0.157 |
| CGAGCTCA | 0.159 |
| AGGCGGTA | -0.177 |
| GTAAGCGA | 0.281 |
| CCATAAAC | -0.119 |
| AGACGCGC | 0.0927 |
| AAGAATGT | 0.0558 |
| CGACCCGA | -0.123 |
| CCAGGCGG | -0.0898 |
| GGGTGGCA | -0.124 |
| GGTCCCAC | -0.158 |
| AGGTCGAA | 0.0571 |
| CCGTTGAA | -0.112 |
| CAGAATCC | 0.062 |
| TATAACGA | 0.152 |
| ATCGGCTA | -0.0351 |
| CCCACCTA | -0.201 |
| ACTAAACC | 0.0291 |
| ACGAGTGC | 0.0809 |
| GCGTAACC | -0.0767 |
| ATGGTTAC | 0.034 |
| CGCCACCA | -0.233 |
| CATATAGC | 0.106 |

In a second layout: entries from further up.
Sequence	PBM E-score
AACACGAG	0.155
ATATGCAC	0.0506
AGGTGGTC	-0.192

More results follow.

| Sequence | PBM E-score |
| --- | --- |
| GGATTGGA | -0.00674 |
| CGACTTAC | 0.123 |
| AAGGGCAG | -0.0938 |
| ACAGTAAA | 0.0557 |
| GAGTGACC | -0.0636 |
| GGCAATTA | 0.0903 |
| CTGTTTAA | 0.0316 |
| ATACCGGC | 0.0748 |
| CCTTCGTA | -0.145 |
| CTTTCGGC | -0.0784 |
| CACATCTG | -0.126 |
| AGTACGGG | -0.17 |
| TAAGCTAA | 0.22 |
| AATCGCAA | 0.0999 |
| AAACAAAG | 0.055 |
| ATGGATAC | 0.115 |
| AAGTAAAC | 0.0793 |
| GTCGCCAC | -0.117 |
| CGATAGTC | 0.168 |
| TCATTTAA | -0.032 |
| CGTGGCAA | -0.252 |
| GTACCGAC | -0.118 |
| AGAACTCT | -0.0345 |
| AGGCACCG | -0.155 |
| GAGAGGCA | -0.133 |

| Sequence | PBM E-score |
| --- | --- |
| CCACACCA | -0.00856 |
| TCTGGTAA | 0.208 |
| CACACTAA | 0.116 |
| ACTCGTAT | 0.0214 |
| AGAGACCC | -0.164 |
| GACCGTGC | -0.0838 |
| AGGCTGAA | -0.0576 |
| GTGAGCGA | -0.11 |
| CAGGAGCG | -0.0398 |
| CCGTCTCC | -0.0189 |
| AAGGGTGA | -0.00878 |
| CCCAGACC | -0.0761 |
| CGAGTCCA | -0.275 |
| GAGCGAAA | 0.0354 |
| CTGGGCTC | -0.203 |
| ACTTAACT | 0.101 |
| CAATGGAC | 0.181 |
| CTCGGGCC | -0.066 |
| ACTGCATA | 0.153 |
| CCGCCCAG | -0.169 |
| GACTGCTA | -0.266 |
| ATTTAGCG | 0.0109 |
| ACCACAAC | 0.0754 |
| AACCGATT | 0.139 |
| CGAACCAC | -0.0167 |

| Sequence | PBM E-score |
| --- | --- |
| AGTGCTCC | -0.233 |
| AGAATCAG | 0.122 |
| ATGTATCA | 0.113 |
| GAGTAATC | 0.18 |
| GCTGGACC | -0.159 |
| AAAATGTT | 0.0552 |
| GTAAATCA | 0.148 |
| CGGAACAG | -0.0323 |
| GAAGCCGC | 0.0904 |
| TCCCACCA | -0.178 |
| GACTGCTC | -0.072 |
| GATAGCAC | -0.024 |
| CAGGCATA | -0.0501 |
| GGGACGGA | -0.264 |
| AAGTACGA | 0.147 |
| GAAGTGAA | -0.0294 |
| GTCCGCTA | 0.0369 |
| AGCGCCCA | -0.264 |
| ACTAGGTG | -0.189 |
| GCGCATAA | 0.0879 |
| ATCTTACC | 0.0255 |
| GCATAGGA | -0.0296 |
| ATCTCCCA | -0.0779 |
| ATTAGGTA | 0.207 |
| GCGCCGCA | 0.149 |

| Sequence | PBM E-score |
| --- | --- |
| CGCTGCCG | -0.119 |
| TAACTAAA | 0.151 |
| GACGGGCC | -0.201 |
| CCGCGGCC | 0.0114 |
| ACGTCTTA | 0.0131 |
| GCTAAAAA | -0.0879 |
| AGAATCTG | -0.0396 |
| CACGCATA | -0.0949 |
| CAGAGTAC | -0.16 |
| CAACGCTG | 0.0342 |
| TGCCTAAA | -0.0424 |
| AGCGTTTA | 0.0708 |
| GCCGAAGA | 0.0279 |
| GGGGCAAA | -0.169 |
| CATCTAAA | 0.115 |
| AAATGCCT | -0.198 |
| GACATGTA | 0.0721 |
| ACTGCAAC | -0.162 |
| GCCTAGCA | -0.245 |
| AATATCCT | -0.0122 |
| CCGGTCAG | 0.0259 |
| GTCCATAA | -0.0891 |

An excerpt of these results, in CSV form.
Sequence,PBM E-score
TGCCTAAA,-0.0424
AGCGTTTA,0.0708
GCCGAAGA,0.0279
GGGGCAAA,-0.169

Source: the supplement of paper PMC3334620
